Our source for the binding values is PMC9691347, “C9orf72 regulates the unfolded protein response and stress granule formation by interacting with eIF2α” (Theranostics, 2022).

Amino acid sequences for entries named in this document (tags omitted).
UniProt P23528: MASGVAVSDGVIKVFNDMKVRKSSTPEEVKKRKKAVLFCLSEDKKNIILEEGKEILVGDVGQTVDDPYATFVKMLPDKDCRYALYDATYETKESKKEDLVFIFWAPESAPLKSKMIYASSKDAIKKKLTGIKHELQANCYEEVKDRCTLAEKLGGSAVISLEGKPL

These are yes or no findings as the source states them, for the method shown. In cells and extracts the contact can be indirect. These calls come from enrichment with a bait or labelling near it, and not all partners need be listed. Sequences can lack the tags named with a protein.

For this assay, the target named is T1, Flag-C9orf72 (long isoform) (human) (UniProt Q96LT7).
T1 sequence: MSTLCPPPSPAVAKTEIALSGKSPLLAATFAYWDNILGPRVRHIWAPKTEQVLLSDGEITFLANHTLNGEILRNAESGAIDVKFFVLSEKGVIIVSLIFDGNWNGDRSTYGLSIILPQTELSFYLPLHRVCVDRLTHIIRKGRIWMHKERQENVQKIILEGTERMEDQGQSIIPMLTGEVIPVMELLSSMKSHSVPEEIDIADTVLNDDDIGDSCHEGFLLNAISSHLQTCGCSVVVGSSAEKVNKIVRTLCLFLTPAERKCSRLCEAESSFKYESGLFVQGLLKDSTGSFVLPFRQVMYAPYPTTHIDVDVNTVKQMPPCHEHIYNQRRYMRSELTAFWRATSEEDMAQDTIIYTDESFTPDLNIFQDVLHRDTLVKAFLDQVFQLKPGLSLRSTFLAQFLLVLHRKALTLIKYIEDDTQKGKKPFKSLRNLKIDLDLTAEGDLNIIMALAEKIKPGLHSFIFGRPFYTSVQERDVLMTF
In words: affinity purification with mass spectrometry; lysates of HEK-293T cells transfected with Flag-tag or Flag-C9orf72 (long version); IP with a Flag antibody pre-coupled to Protein A/G magnetic beads, then MS; Flag-tag sample as control.

In the case of CFL1 (from UniProt P23528 1-166), the binding result was “binds”.
